# These are yes or no findings as the source states them, for the method shown. In cells and extracts the contact can be indirect. Where a sequence is shown, tags or fusion partners need not be part of it.
# Chains of the proteins cited; added tags and fusions are not shown. Residues count along the entry.
# UniProt P05106, residues 27-788: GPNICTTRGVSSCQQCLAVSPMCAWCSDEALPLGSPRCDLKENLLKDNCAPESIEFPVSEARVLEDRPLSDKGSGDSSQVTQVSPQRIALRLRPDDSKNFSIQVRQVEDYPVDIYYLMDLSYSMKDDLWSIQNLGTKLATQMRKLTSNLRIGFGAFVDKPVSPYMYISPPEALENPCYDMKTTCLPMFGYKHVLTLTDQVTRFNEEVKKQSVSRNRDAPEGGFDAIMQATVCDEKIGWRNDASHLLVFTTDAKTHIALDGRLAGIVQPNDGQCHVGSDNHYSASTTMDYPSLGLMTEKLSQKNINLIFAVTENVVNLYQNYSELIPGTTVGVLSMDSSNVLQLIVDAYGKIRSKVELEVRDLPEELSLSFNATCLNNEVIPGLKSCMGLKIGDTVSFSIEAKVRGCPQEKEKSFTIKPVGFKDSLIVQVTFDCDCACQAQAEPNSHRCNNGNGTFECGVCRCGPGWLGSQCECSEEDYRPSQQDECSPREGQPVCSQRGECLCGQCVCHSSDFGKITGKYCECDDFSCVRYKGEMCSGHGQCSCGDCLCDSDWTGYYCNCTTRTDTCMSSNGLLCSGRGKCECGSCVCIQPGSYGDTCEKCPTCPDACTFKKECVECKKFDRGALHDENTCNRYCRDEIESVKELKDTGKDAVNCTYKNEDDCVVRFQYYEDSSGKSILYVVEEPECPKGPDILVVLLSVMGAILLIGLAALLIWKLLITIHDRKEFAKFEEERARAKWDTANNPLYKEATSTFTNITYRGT
# UniProt Q05397: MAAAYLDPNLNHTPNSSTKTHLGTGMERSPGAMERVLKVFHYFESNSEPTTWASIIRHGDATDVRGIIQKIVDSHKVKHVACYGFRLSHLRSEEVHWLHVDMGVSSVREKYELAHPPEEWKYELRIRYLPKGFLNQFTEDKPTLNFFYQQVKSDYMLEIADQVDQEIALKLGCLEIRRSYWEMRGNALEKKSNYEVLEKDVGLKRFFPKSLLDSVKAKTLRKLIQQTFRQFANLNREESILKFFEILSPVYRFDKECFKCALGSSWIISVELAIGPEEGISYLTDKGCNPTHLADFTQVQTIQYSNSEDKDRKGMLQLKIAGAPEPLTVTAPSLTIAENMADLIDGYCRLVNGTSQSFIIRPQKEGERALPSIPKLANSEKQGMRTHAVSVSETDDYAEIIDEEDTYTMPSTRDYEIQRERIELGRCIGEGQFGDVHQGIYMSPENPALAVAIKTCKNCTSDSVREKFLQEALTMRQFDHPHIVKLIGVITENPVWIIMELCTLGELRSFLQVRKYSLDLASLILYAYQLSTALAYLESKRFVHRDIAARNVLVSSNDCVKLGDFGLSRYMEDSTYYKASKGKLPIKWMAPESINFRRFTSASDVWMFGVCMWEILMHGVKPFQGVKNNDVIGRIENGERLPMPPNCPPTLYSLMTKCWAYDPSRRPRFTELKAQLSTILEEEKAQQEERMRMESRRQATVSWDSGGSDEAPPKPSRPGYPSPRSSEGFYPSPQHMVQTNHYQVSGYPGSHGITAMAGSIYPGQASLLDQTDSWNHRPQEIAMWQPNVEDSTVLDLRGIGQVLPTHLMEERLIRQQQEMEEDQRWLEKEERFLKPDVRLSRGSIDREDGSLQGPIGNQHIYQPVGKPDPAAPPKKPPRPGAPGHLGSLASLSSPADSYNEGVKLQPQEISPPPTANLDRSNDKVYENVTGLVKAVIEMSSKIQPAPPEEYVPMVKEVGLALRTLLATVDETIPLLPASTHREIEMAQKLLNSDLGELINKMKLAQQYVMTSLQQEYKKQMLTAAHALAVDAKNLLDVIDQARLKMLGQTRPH
# UniProt P49023: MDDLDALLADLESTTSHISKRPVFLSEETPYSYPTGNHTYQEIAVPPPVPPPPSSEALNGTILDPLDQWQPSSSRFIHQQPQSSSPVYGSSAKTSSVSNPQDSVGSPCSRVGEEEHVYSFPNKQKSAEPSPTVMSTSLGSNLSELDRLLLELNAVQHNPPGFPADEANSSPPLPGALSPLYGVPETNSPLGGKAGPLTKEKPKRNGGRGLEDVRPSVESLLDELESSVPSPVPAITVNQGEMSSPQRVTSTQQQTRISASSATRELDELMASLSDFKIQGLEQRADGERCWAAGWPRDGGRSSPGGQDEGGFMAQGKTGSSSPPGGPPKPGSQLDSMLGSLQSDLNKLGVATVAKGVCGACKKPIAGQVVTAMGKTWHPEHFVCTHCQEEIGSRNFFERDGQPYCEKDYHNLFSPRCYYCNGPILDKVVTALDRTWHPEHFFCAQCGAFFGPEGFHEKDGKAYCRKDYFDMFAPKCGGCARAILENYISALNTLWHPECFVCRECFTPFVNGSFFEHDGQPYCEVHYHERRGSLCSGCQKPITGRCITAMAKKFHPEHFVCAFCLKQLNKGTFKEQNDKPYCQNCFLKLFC
# Assays:
# [1] = target: T1, His-tagged recombinant IL-32γ (human) (UniProt P24001); experiment: pull-down; His-tagged IL-32γ on Ni-NTA agarose beads, incubated with the lysate supernatant of MRC-5 cells stimulated with TGF-β for 24 h; flow-through, wash and elution fractions immunoblotted; only the target purified
# T1 sequence: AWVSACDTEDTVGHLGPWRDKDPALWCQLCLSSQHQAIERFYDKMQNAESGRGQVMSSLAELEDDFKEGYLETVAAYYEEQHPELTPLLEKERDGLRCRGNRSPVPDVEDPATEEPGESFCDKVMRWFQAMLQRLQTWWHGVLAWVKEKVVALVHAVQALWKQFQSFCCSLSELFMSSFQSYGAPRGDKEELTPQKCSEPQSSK
# [2] = target: T2, flag-tagged IL-32γ (human) (UniProt P24001); experiment: co-IP; MRC-5 cells overexpressing flag-tagged IL-32γ, stimulated with TGF-β and harvested at 24 h; lysate on protein G Sepharose beads coated with anti-flag antibody; immunoblot with anti-FAK antibody
# T2 sequence: T1 sequence
substance,measurement,setting,value
integrin β3 (from UniProt P05106 27-788) (receptor),binding,[1],no binding
focal adhesion kinase (from UniProt Q05397 1-1052) (enzyme),binding,[2],no binding
paxillin (from UniProt P49023 1-591),binding,[1],no binding

# Source: paper PMC6158920
